Test results: PMC4432227
Results are given in words; binding and its absence hold for the method and conditions named. Binding seen in cells or lysates may run through a third protein. Some results given as binding are weak or reduced against the parent protein; the word gives no strength. Where a sequence is shown, tags or fusion partners need not be part of it.

By UniProt entry, the sequences of proteins in these tests, tags left out. Where a name states a change or a piece, a line headed by the entry shows the natural chain unless it says otherwise.
UniProt Q9NVJ2: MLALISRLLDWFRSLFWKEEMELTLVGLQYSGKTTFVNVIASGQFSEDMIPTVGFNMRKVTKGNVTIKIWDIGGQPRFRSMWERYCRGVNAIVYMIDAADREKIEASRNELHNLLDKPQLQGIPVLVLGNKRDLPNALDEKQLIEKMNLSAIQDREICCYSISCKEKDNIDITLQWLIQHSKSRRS

How the values were obtained:
Assay in all cases: pull-down; GST proteins on glutathione-conjugated beads incubated with transfected HeLa cell lysates; immunoblot; only the target purified
GST–Arl8b-T34N = GST–Arl8b-T34N (UniProt Q9NVJ2)
GST–Arl8b = GST–Arl8b (UniProt Q9NVJ2)
GST–Rab7, P51149 = conditions: remark: other sources report otherwise

Binder | binding (GST–Arl8b-T34N) | binding (GST–Arl8b) | binding (GST–Rab7, P51149)
HA–hVps41 (HeLa) (protein, UniProt P49754 1-854) MAEAEEQETGSLEESTDESEEEESEEEPKLKYERLSNGVTEILQKDAASCMTVHDKFLALGTHYGKVYLLDVQGNITQKFDVSPVKINQISLDESGEHMGVCSEDGKVQVFGLYSGEEFHETFDCPIKIIAVHPHFVRSSCKQFVTGGKKLLLFERSWMNRWKSAVLHEGEGNIRSVKWRGHLIAWANNMGVKIFDIISKQRITNVPRDDISLRPDMYPCSLCWKDNVTLIIGWGTSVKVCSVKERHASEMRDLPSRYVEIVSQFETEFYISGLAPLCDQLVVLSYVKEISEKTEREYCARPRLDIIQPLSETCEEISSDALTVRGFQENECRDYHLEYSEGESLFYIVSPRDVVVAKERDQDDHIDWLLEKKKYEEALMAAEISQKNIKRHKILDIGLAYINHLVERGDYDIAARKCQKILGKNAALWEYEVYKFKEIGQLKAISPYLPRGDPVLKPLIYEMILHEFLESDYEGFATLIREWPGDLYNNSVIVQAVRDHLKKDSQNKTLLKTLAELYTYDKNYGNALEIYLTLRHKDVFQLIHKHNLFSSIKDKIVLLMDFDSEKAVDMLLDNEDKISIKKVVEELEDRPELQHVYLHKLFKRDHHKGQRYHEKQISLYAEYDRPNLLPFLRDSTHCPLEKALEICQQRNFVEETVYLLSRMGNSRSALKMIMEELHDVDKAIEFAKEQDDGELWEDLILYSIDKPPFITGLLNNIGTHVDPILLIHRIKEGMEIPNLRDSLVKILQDYNLQILLREGCKKILVADSLSLLKKMHRTQMKGVLVDEENICESCLSPILPSDAAKPFSVVVFHCRHMFHKECLPMPSMNSAAQFCNICSAKNRGPGSAILEMKK | no binding | binds | 
HA–hVps41 (HeLa), P49754 1-854 (protein) MAEAEEQETGSLEESTDESEEEESEEEPKLKYERLSNGVTEILQKDAASCMTVHDKFLALGTHYGKVYLLDVQGNITQKFDVSPVKINQISLDESGEHMGVCSEDGKVQVFGLYSGEEFHETFDCPIKIIAVHPHFVRSSCKQFVTGGKKLLLFERSWMNRWKSAVLHEGEGNIRSVKWRGHLIAWANNMGVKIFDIISKQRITNVPRDDISLRPDMYPCSLCWKDNVTLIIGWGTSVKVCSVKERHASEMRDLPSRYVEIVSQFETEFYISGLAPLCDQLVVLSYVKEISEKTEREYCARPRLDIIQPLSETCEEISSDALTVRGFQENECRDYHLEYSEGESLFYIVSPRDVVVAKERDQDDHIDWLLEKKKYEEALMAAEISQKNIKRHKILDIGLAYINHLVERGDYDIAARKCQKILGKNAALWEYEVYKFKEIGQLKAISPYLPRGDPVLKPLIYEMILHEFLESDYEGFATLIREWPGDLYNNSVIVQAVRDHLKKDSQNKTLLKTLAELYTYDKNYGNALEIYLTLRHKDVFQLIHKHNLFSSIKDKIVLLMDFDSEKAVDMLLDNEDKISIKKVVEELEDRPELQHVYLHKLFKRDHHKGQRYHEKQISLYAEYDRPNLLPFLRDSTHCPLEKALEICQQRNFVEETVYLLSRMGNSRSALKMIMEELHDVDKAIEFAKEQDDGELWEDLILYSIDKPPFITGLLNNIGTHVDPILLIHRIKEGMEIPNLRDSLVKILQDYNLQILLREGCKKILVADSLSLLKKMHRTQMKGVLVDEENICESCLSPILPSDAAKPFSVVVFHCRHMFHKECLPMPSMNSAAQFCNICSAKNRGPGSAILEMKK |  |  | no binding
